Experimental data: PubChem BioAssay AID743121 (NCATS, 2013)
The whole screen tested about 26,000 reagents; shown is a part drawn at random. 167 of all reagents (0.63%) were called active. 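Calls are per gene from RSA p-values that are not deposited; an individual active-marked siRNA can sensitise only weakly.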 The numbers tell different reagents against one gene apart. Not all columns of the deposit are shown.

Purpose: 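Genes whose silencing strengthens cell killing by camptothecin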 (primary screen)
System: MDA-MB-231 cells, a human breast cancer line
Reagent: single siRNA against human genes, 20 nM siRNA (0.8 pmol per well)
Time to read-out: 120 h (drug added 48 h after transfection, read 72 h later)
Challenge: camptothecin 20 nM (about EC30) for 72 h; vehicle 0.1% DMSO in parallel plates
Detection: 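Cell viability by ATP luminescence (CellTiter-Glo) as % of non-targeting siRNA wells, and the log2 ratio of viability without drug over viability with camptothecin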
Reading the numbers: log2 vehicle/camptothecin viability: higher = stronger sensitisation to camptothecin
Call rule: 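Active genes have an RSA gene-level p-value below 0.001, computed from the ratios of their separate siRNAs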

HMOX1 #1
- log2 vehicle/camptothecin viability: -0.249
- Outcome: inactive

HMOX1 #2
- log2 vehicle/camptothecin viability: -0.0316
- Outcome: inactive

HMOX1 #3
- log2 vehicle/camptothecin viability: -0.135
- Outcome: inactive

HMOX1 #4
- log2 vehicle/camptothecin viability: -0.0294
- Outcome: inactive

CD22 #1
- log2 vehicle/camptothecin viability: -0.124
- Outcome: inactive

CD22 #2
- log2 vehicle/camptothecin viability: 0.259
- Outcome: inactive

CD22 #3
- log2 vehicle/camptothecin viability: -0.055
- Outcome: inactive

RPL36 #1
- log2 vehicle/camptothecin viability: -0.174
- Outcome: inactive

RPL36 #2
- log2 vehicle/camptothecin viability: -0.42
- Outcome: inactive

RPL36 #3
- log2 vehicle/camptothecin viability: -0.827
- Outcome: inactive

RPL36 #4
- log2 vehicle/camptothecin viability: -0.382
- Outcome: inactive

Part of the list above, reformatted.
gene symbol | reagent | log2 vehicle/camptothecin viability | Outcome
CD22 | 1 | -0.124 | inactive
CD22 | 2 | 0.259 | inactive
CD22 | 3 | -0.055 | inactive

Next records:
DNMT3A #1
- log2 vehicle/camptothecin viability: -0.121
- Outcome: inactive

DNMT3A #2
- log2 vehicle/camptothecin viability: 0.0956
- Outcome: inactive

DNMT3A #3
- log2 vehicle/camptothecin viability: 0.253
- Outcome: inactive

DNMT3A #4
- log2 vehicle/camptothecin viability: 0.111
- Outcome: inactive

DNMT3A #5
- log2 vehicle/camptothecin viability: -0.0304
- Outcome: inactive

DNMT3A #6
- log2 vehicle/camptothecin viability: -0.0903
- Outcome: inactive

DNMT3A #7
- log2 vehicle/camptothecin viability: -0.0676
- Outcome: inactive

DNMT3A #8
- log2 vehicle/camptothecin viability: -0.448
- Outcome: inactive

CELF1 #1
- log2 vehicle/camptothecin viability: -0.446
- Outcome: inactive

CELF1 #2
- log2 vehicle/camptothecin viability: 0.0827
- Outcome: inactive

CELF1 #3
- log2 vehicle/camptothecin viability: -0.224
- Outcome: inactive

CELF1 #4
- log2 vehicle/camptothecin viability: -0.112
- Outcome: inactive

CSH1 #1
- log2 vehicle/camptothecin viability: -0.484
- Outcome: inactive

CSH1 #2
- log2 vehicle/camptothecin viability: 0.118
- Outcome: inactive

CSH1 #3
- log2 vehicle/camptothecin viability: -0.415
- Outcome: inactive
